Consider 54 sequences from paper PMC7819943, “Rice protein-binding microarrays: a tool to detect cis-acting elements near promoter regions in rice”.

By UniProt entry, the sequences of proteins in these tests, tags left out.
UniProt Q0JBA9, entry or part of it: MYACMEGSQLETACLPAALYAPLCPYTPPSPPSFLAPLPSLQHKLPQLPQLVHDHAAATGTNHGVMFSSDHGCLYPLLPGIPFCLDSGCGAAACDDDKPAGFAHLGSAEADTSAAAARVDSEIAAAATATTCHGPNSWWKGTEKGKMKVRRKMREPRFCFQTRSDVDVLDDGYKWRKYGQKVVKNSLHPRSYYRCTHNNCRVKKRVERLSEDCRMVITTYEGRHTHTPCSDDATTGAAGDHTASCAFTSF

Some of the results follow.

The assay has as its target OsWRKY34 (Oryza sativa, UniProt Q0JBA9 1-250). Kind of assay: protein-binding microarray (RPBM); PBS, 2% BSA, 51.3 ng/ul salmon testes DNA, 50 uM zinc acetate, 200 nM TF, 25 C, 1 h; high values mean tight binding. Conditions: protein: recombinant; tags: N-terminal polyhistidine and DsRed monomer fusion (pET32a); label: CyDye5-dUTP incorporated in the synthesized complementary strand; 3' TTTTT single-stranded linker to array surface; dsDNA, one strand shown. The essentials:
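The binding signal is fluorescence intensity per feature, in arbitrary units, read on an Axon 4000B scanner. Polyhistidine- and DsRed-tagged transcription factors (N-terminal fusions) from E. coli BL21-CodonPlus were purified on Ni–NTA and applied at 200 nM for 1 h at 25 °C to a double-stranded, BSA-blocked custom Agilent array in buffer with 50 µM zinc acetate.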
For the sequence “ACTATCGCTGCCACGACCATTTCTAATCGCCAAGATCGTACGGAGTCACCTAGTGCAG”, the binding signal was 8970 fluorescence intensity (a.u.). The result for “GTTGTGTATTAAATTTAATTTGTTGGCTCGTGTTAAATTACGGAGTCACCTAGTGCAG” reads 10100 fluorescence intensity (a.u.).

Consider “ACCTCAATGCCGTGCCGCTGCTCTGCTCCCAGTCGCCTACCGGAGTCACCTAGTGCAG”, for which the binding signal is 8590 fluorescence intensity (a.u.). In the case of “CATACTTTTCCAGTACTTGGCTTAACTATTCTTCTCTTAGCGGAGTCACCTAGTGCAG”, the binding signal is 8220 fluorescence intensity (a.u.).

Regarding “ATGTGTAATTACTTCGAAACTTGAGTCTGCTTCTATTTTTCGGAGTCACCTAGTGCAG”, the binding signal is 10700 fluorescence intensity (a.u.).

Consider “CTCCATGCGCTCACGTTCCATCGCGTGGTCCACGCCCTTCCGGAGTCACCTAGTGCAG”, for which the binding signal is 9570 fluorescence intensity (a.u.). “GTGGGTGGAGGAAGCGGATAGGGAGAGGGGTGTGGGGCGGCGGAGTCACCTAGTGCAG”: the binding signal was 16000 fluorescence intensity (a.u.). With “TCATGTATCAATGTATGCTTATATTTTCAAAACTTTGTAGCGGAGTCACCTAGTGCAG”, the binding signal was 8790 fluorescence intensity (a.u.). In the case of “GCTGAGAGAGTGCTCATTTCCAAGTTTTCAACCACCCTCTCGGAGTCACCTAGTGCAG” it was 9370 fluorescence intensity (a.u.). For “GCACGCTTTTCAAACTGATAAACGGTACGTTTCGTTCTATCGGAGTCACCTAGTGCAG”, the binding signal is 8040 fluorescence intensity (a.u.). The result for “TAGTATATGATTTTCGGGTCTGAGAAGTTAATTCGTACTCCGGAGTCACCTAGTGCAG” reads 9390 fluorescence intensity (a.u.); that for “AAGAAATCTCCCGTTTGGTCTCGTTCTCGTTGTCTCCTCCCGGAGTCACCTAGTGCAG”, 9100 fluorescence intensity (a.u.). As for “CTCCAAATTTCATCTGAGGCTCAGTTTAGTCCTTGATATTCGGAGTCACCTAGTGCAG”, the binding signal was 8600 fluorescence intensity (a.u.).

As for “TCTTCTACGTAAACACTCTAACGAGATCTTACACCTGAACCGGAGTCACCTAGTGCAG”, the binding signal is 9210 fluorescence intensity (a.u.). The result for “TATATATATATATATATATATATACCCACGTGAGGACGTACGGAGTCACCTAGTGCAG” reads 15800 fluorescence intensity (a.u.).

Consider “CTTTTCTTGTTGTCTTGTTTGCCCTATTTCATATAAATTTCGGAGTCACCTAGTGCAG”, for which the binding signal was 11100 fluorescence intensity (a.u.). Take “TCTTTCACGTTTTCGTCCATAGGATCTTGCATCAAGATTCCGGAGTCACCTAGTGCAG”: the binding signal is 9060 fluorescence intensity (a.u.). Turning to “GCTGGATACATGCTCCAGCTTAGTTAGTTGTTGGGTATTTCGGAGTCACCTAGTGCAG”, the binding signal is 9720 fluorescence intensity (a.u.).

As for “GGTTTTGAGATGGCATCCAAGCTTAACTTGTTTTTTTTCCCGGAGTCACCTAGTGCAG”, the binding signal is 9320 fluorescence intensity (a.u.). In the case of “TCTGCTATTGTACTTGCTCTAATTGGGTAGTTGGGTTGAACGGAGTCACCTAGTGCAG” it was 13500 fluorescence intensity (a.u.); in that of “CTAACTATACTATAAACCTGTAATTTTTGCTTTTACTTTTCGGAGTCACCTAGTGCAG”, 9940 fluorescence intensity (a.u.); in that of “TTAATTCTGTGCTAATTGTGTTTATTGTTTTGCGTGCAGCCGGAGTCACCTAGTGCAG”, 8100 fluorescence intensity (a.u.). With “CTATCTTAATCTCATCATCAATTCCCTCGTGTAAACTCCCCGGAGTCACCTAGTGCAG”, the binding signal is 8420 fluorescence intensity (a.u.).

As to “CGCGCCGTCGACCCACCGCCCGCCGGCCCACCGCCCCGGGCGGAGTCACCTAGTGCAG”, the binding signal was 8280 fluorescence intensity (a.u.). In the case of “CATTCCTGTGTTTTTCCTGTGTTTCACAATCCTCTGTTTTCGGAGTCACCTAGTGCAG” it was 11600 fluorescence intensity (a.u.). For the sequence “TAAAACTAGTCATCCCTTCATTTTATATTATAAGTTGTTTCGGAGTCACCTAGTGCAG”, the binding signal is 8290 fluorescence intensity (a.u.).

For the sequence “CCCGTATATCTGGTTTTGCGGTTCGAGGACATTTTTTTTACGGAGTCACCTAGTGCAG”, the binding signal was 9100 fluorescence intensity (a.u.). The result for “AGATATCCGGTATTGTGGTTTAGGGATAGGGATGGCAGTTCGGAGTCACCTAGTGCAG” reads 8550 fluorescence intensity (a.u.); that for “ATGCCTCCTTATTTGAAGATTTGCTTTTCTTATTGTTCAACGGAGTCACCTAGTGCAG”, 8970 fluorescence intensity (a.u.).

With “CTTACTGTTCTTCGTGATCTGTGCACTCCTAATCTCTCCTCGGAGTCACCTAGTGCAG”, the binding signal is 12000 fluorescence intensity (a.u.).

As for “TCGGGGAAGTCTATTTCTTATCACTTCCTTCTTTTCTTTTCGGAGTCACCTAGTGCAG”, the binding signal was 9440 fluorescence intensity (a.u.).

Regarding “TCCCAGGTTCTACCCTTCTAGTCATCGTCGTTTGTGGCCTCGGAGTCACCTAGTGCAG”, the binding signal is 11400 fluorescence intensity (a.u.). Take “AGTTTCTTTCTTACTTGCTCCTCTACTGCAAACTGTTGTTCGGAGTCACCTAGTGCAG”: the binding signal is 8140 fluorescence intensity (a.u.). Take “TCTCTTCTCCTTCACATTTCTTCTATATATACCCAGTCTCCGGAGTCACCTAGTGCAG”: the binding signal is 9040 fluorescence intensity (a.u.). With “GTGTCCAACTTTGACTATCCGTTTTATATGAAATTTTTTTCGGAGTCACCTAGTGCAG”, the binding signal was 11400 fluorescence intensity (a.u.). The result for “GCCATGTAATTGTTACCCACCCGTGTCCATTTGCAATTGACGGAGTCACCTAGTGCAG” reads 8240 fluorescence intensity (a.u.); that for “AGGTGGTGGTGGAGGTGGAGGTGGCGGTGGAGGTGGAGGGCGGAGTCACCTAGTGCAG”, 38600 fluorescence intensity (a.u.). The result for “TCCCAAGTTATTTTTGATTGCTTCATTCCTACCTCTCAAACGGAGTCACCTAGTGCAG” reads 10300 fluorescence intensity (a.u.); that for “AGGGCTTTTGACTGTGACATGTATACTCTGTAATTACAAGCGGAGTCACCTAGTGCAG”, 8030 fluorescence intensity (a.u.).

As to “GATGGGGTTGAGTCGATTCCTGCTGATGGAACTAGGGGAGCGGAGTCACCTAGTGCAG”, the binding signal was 8450 fluorescence intensity (a.u.). “GTTCTAAAATATAACAACTTCTTTACCTACATTTCCTTCTCGGAGTCACCTAGTGCAG”: the binding signal is 8730 fluorescence intensity (a.u.). The result for “CTCCGTTCTTCCCCGCCGACTCCTTCCCTCCGTTCTCCTTCGGAGTCACCTAGTGCAG” reads 8550 fluorescence intensity (a.u.); that for “CTCGACGGATTTTCTTTTTATTTTTGGTTTCCAAAGTATGCGGAGTCACCTAGTGCAG”, 8510 fluorescence intensity (a.u.); that for “GGCAATCACTCATCGCCTCTCGTCTTCCTGTTGCCCTGTTCGGAGTCACCTAGTGCAG”, 8150 fluorescence intensity (a.u.).

For the sequence “TGCTGTGAATTTACTCCTCTATAATCTATTACTAGTACAACGGAGTCACCTAGTGCAG”, the binding signal is 9870 fluorescence intensity (a.u.). In the case of “GTCCTAGGCATATACTACCCCTTTTCTTCTCCCAATTTCACGGAGTCACCTAGTGCAG” it was 8470 fluorescence intensity (a.u.). The result for “TCCTTGATGTGCTGTGTCCTGGATGGTCGATTCTTCATCCCGGAGTCACCTAGTGCAG” reads 9350 fluorescence intensity (a.u.). In the case of “GTGAAGCTCTCTCTCTCCTCTCACGTGACTGGATCCCTCTCGGAGTCACCTAGTGCAG” it was 8160 fluorescence intensity (a.u.); in that of “CTCCTCCGCTCCTCTCTCGCCCACCACCGCGCGCCCTTTCCGGAGTCACCTAGTGCAG”, 8330 fluorescence intensity (a.u.). For the sequence “TGCTTTGAGTGAAATGTTTCTGGCTTTCTGCTACCCTTTTCGGAGTCACCTAGTGCAG”, the binding signal was 8640 fluorescence intensity (a.u.). Regarding “TCCACGTCGCTACGCGCCACCAGCCAGACGGCCTGCCCAACGGAGTCACCTAGTGCAG”, the binding signal was 8760 fluorescence intensity (a.u.). In the case of “TACTCAATGTCTAATGGGGTGTTTGGATGGGACTAATTTTCGGAGTCACCTAGTGCAG” it was 13000 fluorescence intensity (a.u.); in that of “GCTCAATTCCTTGCTTGTTTGCTTCCATATTACACTACATCGGAGTCACCTAGTGCAG”, 13000 fluorescence intensity (a.u.). The result for “TCGTTGATTTTTGACATGATGTTTGACCATTCTTATTATTCGGAGTCACCTAGTGCAG” reads 9750 fluorescence intensity (a.u.).
